These are yes or no findings as the source states them, for the method shown. Where a sequence is shown, tags or fusion partners need not be part of it.
What was measured:
[1] = molecular target: MyD88 TIR domain (MyD88^TIR), residues 155-296, C-terminal 6xHis tag (UniProt Q99836); experiment: condition: 30 µM TLR1^TIR with 60 µM MyD88^TIR (negative-stain EM); turbidity-based polymerization assay + negative-stain EM; purified proteins mixed in GF buffer (10 mM HEPES pH 7.5, 150 mM NaCl, 1 mM DTT), 30 °C, absorbance at 350 nm every 30 s for 1 h; samples then seen by negative-stain EM; 60 µM MyD88^TIR with 30-120 µM receptor TIR domain; both purified
[2] = molecular target: MyD88 TIR domain (MyD88^TIR), residues 155-296, C-terminal 6xHis tag (UniProt Q99836); experiment: condition: 30 µM TLR6^TIR with 60 µM MyD88^TIR (negative-stain EM); turbidity-based polymerization assay + negative-stain EM; purified proteins mixed in GF buffer (10 mM HEPES pH 7.5, 150 mM NaCl, 1 mM DTT), 30 °C, absorbance at 350 nm every 30 s for 1 h; samples then seen by negative-stain EM; 60 µM MyD88^TIR with 30-120 µM receptor TIR domain; both purified

The chains behind the UniProt entries cited, without tags or fusion partners. Residues count along the entry.
UniProt Q99836, residues 155-296: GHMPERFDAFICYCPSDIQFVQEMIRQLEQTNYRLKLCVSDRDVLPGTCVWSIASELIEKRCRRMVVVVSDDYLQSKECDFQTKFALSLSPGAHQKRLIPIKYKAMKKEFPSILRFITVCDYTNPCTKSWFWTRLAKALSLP

Row | binding [1] | binding [2] | Binder
1 | no binding |  | TLR1 TIR domain (TLR1^TIR), residues 625-786, N-terminal 6xHis tag (domain or fragment, UniProt Q15399 625-786) NIPLEELQRNLQFHAFISYSGHDSFWVKNELLPNLEKEGMQICLHERNFVPGKSIVENIITCIEKSYKSIFVLSPNFVQSEWCHYELYFAHHNLFHEGSNSLILILLEPIPQYSIPSSYHKLKSLMARRTYLEWPKEKSKRGLFWANLRAAINIKLTEQAKK
2 |  | no binding | TLR6 TIR domain (TLR6^TIR), residues 637-783, N-terminal 6xHis tag (domain or fragment, UniProt Q9Y2C9 637-783) QRNLQFHAFISYSEHDSAWVKSELVPYLEKEDIQICLHERNFVPGKSIVENIINCIEKSYKSIFVLSPNFVQSEWCHYELYFAHHNLFHEGSNNLILILLEPIPQNSIPNKYHKLKALMTQRTYLQWPKEKSKRGLFWANIRAAFNM
